According to paper PMC4428707:
No constants are given. Whether binding was seen depends on the method and setting. In cells and extracts the contact can be indirect.

The chains behind the UniProt entries cited, without tags or fusion partners. Where a name states a change or a piece, a line headed by the entry shows the natural chain unless it says otherwise. Residues count along the entry.
UniProt Q9JMH9: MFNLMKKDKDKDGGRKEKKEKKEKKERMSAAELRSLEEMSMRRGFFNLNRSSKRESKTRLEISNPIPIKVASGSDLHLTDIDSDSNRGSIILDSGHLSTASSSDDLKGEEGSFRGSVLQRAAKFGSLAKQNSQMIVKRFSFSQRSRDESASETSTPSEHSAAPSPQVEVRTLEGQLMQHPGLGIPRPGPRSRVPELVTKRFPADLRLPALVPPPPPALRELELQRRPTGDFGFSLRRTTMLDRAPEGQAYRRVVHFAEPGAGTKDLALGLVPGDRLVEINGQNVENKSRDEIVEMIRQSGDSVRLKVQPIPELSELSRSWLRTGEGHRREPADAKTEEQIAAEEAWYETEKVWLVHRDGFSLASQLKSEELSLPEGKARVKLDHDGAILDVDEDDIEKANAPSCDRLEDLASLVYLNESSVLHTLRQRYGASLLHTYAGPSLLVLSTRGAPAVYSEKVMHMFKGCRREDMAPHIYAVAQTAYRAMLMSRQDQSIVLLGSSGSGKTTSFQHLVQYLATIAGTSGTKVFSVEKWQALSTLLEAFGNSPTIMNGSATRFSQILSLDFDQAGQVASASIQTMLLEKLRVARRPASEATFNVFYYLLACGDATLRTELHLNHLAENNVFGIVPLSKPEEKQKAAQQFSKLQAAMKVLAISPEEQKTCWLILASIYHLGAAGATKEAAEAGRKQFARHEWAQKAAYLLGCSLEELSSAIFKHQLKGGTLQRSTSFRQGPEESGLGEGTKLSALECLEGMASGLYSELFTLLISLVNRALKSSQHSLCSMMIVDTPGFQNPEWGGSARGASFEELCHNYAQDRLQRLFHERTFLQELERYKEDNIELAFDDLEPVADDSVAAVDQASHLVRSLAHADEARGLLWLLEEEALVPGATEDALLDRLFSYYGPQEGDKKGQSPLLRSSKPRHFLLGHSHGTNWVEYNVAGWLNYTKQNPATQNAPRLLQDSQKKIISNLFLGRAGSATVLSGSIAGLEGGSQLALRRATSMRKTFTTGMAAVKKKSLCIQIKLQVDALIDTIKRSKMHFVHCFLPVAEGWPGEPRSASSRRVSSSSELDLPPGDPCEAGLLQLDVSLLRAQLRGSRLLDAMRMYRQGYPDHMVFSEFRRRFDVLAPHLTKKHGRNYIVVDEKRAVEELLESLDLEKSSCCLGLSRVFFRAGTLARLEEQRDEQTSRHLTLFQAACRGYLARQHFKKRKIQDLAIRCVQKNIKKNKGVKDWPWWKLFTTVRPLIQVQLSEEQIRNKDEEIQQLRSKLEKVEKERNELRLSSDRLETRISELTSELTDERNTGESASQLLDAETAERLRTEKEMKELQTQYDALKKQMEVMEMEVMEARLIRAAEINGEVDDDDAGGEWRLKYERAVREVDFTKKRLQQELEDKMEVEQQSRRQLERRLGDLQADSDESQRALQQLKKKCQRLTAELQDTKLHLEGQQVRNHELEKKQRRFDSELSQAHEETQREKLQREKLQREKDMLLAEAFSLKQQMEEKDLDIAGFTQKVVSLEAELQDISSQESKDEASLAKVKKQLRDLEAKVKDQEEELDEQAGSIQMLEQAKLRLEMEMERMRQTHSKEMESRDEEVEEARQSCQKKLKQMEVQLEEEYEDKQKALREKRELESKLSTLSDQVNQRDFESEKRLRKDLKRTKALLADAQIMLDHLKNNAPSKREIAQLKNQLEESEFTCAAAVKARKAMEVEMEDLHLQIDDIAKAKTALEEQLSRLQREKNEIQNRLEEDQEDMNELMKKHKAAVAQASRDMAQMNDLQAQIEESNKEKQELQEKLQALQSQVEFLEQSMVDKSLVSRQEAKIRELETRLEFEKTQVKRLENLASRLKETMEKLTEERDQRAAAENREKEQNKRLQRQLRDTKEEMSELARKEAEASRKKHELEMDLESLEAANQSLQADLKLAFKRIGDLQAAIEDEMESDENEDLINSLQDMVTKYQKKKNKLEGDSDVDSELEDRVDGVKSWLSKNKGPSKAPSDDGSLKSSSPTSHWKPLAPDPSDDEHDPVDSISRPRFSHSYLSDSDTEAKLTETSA
UniProt P05555, residues 17-1153: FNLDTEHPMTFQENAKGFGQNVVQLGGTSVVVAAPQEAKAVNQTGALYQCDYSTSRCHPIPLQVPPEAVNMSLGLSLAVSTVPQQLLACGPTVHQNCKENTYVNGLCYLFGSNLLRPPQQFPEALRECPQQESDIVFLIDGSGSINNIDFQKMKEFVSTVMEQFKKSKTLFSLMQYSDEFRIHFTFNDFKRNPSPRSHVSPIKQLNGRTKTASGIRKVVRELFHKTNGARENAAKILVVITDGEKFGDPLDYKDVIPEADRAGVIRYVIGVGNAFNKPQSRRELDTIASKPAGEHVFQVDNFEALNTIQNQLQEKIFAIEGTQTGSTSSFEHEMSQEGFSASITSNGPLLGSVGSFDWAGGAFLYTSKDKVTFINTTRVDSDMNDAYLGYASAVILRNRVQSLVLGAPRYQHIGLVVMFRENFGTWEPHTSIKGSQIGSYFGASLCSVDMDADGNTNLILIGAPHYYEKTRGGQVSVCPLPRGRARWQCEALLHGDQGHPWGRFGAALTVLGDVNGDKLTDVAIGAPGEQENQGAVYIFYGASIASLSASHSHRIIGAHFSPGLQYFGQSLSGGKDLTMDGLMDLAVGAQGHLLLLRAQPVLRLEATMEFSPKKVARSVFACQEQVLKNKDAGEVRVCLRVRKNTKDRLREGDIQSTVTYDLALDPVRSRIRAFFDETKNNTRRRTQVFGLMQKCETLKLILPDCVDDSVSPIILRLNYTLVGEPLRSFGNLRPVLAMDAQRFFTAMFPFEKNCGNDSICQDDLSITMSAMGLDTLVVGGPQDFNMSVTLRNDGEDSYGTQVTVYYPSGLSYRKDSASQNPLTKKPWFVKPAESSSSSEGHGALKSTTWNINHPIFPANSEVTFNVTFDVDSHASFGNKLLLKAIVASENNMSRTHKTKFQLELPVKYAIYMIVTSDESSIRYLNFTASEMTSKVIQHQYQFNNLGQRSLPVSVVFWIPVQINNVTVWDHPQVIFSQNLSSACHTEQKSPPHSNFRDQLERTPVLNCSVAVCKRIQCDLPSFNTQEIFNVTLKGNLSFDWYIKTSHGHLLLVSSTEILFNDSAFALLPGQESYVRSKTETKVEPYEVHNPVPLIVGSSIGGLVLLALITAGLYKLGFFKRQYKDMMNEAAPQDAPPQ
UniProt Q08857: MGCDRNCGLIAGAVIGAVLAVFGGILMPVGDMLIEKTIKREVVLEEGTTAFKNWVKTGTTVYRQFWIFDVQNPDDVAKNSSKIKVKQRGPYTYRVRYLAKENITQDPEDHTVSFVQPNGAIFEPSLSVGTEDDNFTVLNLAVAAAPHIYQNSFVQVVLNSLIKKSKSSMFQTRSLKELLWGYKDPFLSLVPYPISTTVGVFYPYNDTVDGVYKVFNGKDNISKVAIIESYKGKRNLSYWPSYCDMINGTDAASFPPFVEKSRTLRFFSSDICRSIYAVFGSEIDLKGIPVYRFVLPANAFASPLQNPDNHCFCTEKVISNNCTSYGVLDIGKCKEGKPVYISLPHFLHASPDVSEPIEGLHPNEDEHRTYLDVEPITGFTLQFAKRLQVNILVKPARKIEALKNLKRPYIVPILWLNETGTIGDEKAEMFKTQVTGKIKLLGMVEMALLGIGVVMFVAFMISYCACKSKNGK

How the values were obtained:
[1] = molecular target: SP-R210L, long isoform of the surfactant protein A receptor SP-R210 (Myo18A) (mouse (endogenous in Raw264.7)) (UniProt Q9JMH9); assay: co-IP; precipitation with affinity purified polyclonal anti-SP-R210 (recognises SP-R210L and SP-R210S) from 5 mg/mL extracts of control and SP-R210L(DN) Raw264.7 cells; lysis buffer 50 mM Tris-HCl pH 8.0, 150 mM NaCl, 1% NP-40; protein G beads, 4°C; Western blot
[2] = molecular target: CD11b (mouse (endogenous in Raw264.7)) (UniProt P05555); assay: co-IP; precipitation with monoclonal CD11b antibody from 5 mg/mL extracts of Raw264.7 cells (SP-R210 isoforms: result in control cells; TLR-2 blot of the same panel); 50 mM Tris-HCl pH 8.0, 150 mM NaCl, 1% NP-40; protein G beads, 4°C; Western blot

binding [1] | binding [2] | Substance
no binding |  | CD36 (from UniProt Q08857 1-472) (receptor)
 | no binding | SP-R210L, long isoform of the surfactant protein A receptor SP-R210 (Myo18A) (from UniProt Q9JMH9-3 1-2050)
